# Measurements from patent US9963451B2, “Fused ring pyrimidine compound and pest control agent containing the same” (Mitsui Chemicals Agro, Inc., priority 2013, dated 2018).
# Some results were stated once for a whole list of compounds, not compound by compound.
# Columns and labels:
# Myzus persicae = assay: Test Example 2: insecticidal test against Myzus persicae (root immersion and leaf spray of young white radish plant); type: in vivo; settings: 100 ppm root immersion and 1000 ppm leaf spray, 1-stage larvae, 25° C., after 5 days
# Laodelphax striatellus = assay: Test Example 1: insecticidal test against Laodelphax striatellus (root immersion and leaf spray of young rice plant); type: in vivo; settings: 100 ppm root immersion and 1000 ppm leaf spray, 25° C., after 6 days
SMILES,insect death ratio (Myzus persicae),insect death ratio (Laodelphax striatellus)
CSc1nc2n(Cc3ncc(C(F)(F)F)cc3Cl)c(C)cc(=O)n2n1 [compound 41],≥ 70%,
Cc1cc(=O)n2nc(OC(C)c3ccc(C(F)(F)F)cc3)nc2n1Cc1ccc(Cl)nc1 (centres unmarked) [compound 106],,≥ 70%
CSc1nc2n(Cn3cncn3)c(C)cc(=O)n2n1 [compound 286],,≥ 70%
CSc1nc2n(Cc3cnc(C)s3)c(C)cc(=O)n2n1 [compound 295],≥ 70%,≥ 70%
CSc1cc2n(Cc3cncc(Cl)c3)c(C)cc(=O)n2n1 [compound 285],≥ 70%,≥ 70%
CSc1nc2n(Cc3cncc(Cl)c3)c(C)cc(=O)n2n1 [compound 284],≥ 70%,≥ 70%
CSc1cc2n(Cc3ccc(C(F)(F)F)nc3)c(C)cc(=O)n2n1 [compound 224],≥ 70%,≥ 70%
CSc1nc2n(Cn3cnc(C(F)(F)F)c3)c(C)cc(=O)n2n1 [compound 294],≥ 70%,≥ 70%
CSc1nc2n(Cc3ccncc3)c(C)cc(=O)n2n1 [compound 44],≥ 70%,
CSc1cc2n(Cc3ccc(I)nc3)c(C)cc(=O)n2n1 [compound 313],,≥ 70%
CSc1cc2n(Cc3cncs3)c(C)cc(=O)n2n1 [compound 278],,≥ 70%
CSc1nc2n(Cc3cccnc3)c(C)cc(=O)n2n1 [compound 42],,≥ 70%
CSc1cc2n(Cc3cnccn3)c(C)cc(=O)n2n1 [compound 274],,≥ 70%
Cc1cc(=O)n2nc(Oc3ccc(OC(F)(F)F)cc3)nc2n1Cc1ccc(Cl)nc1 [compound 66],,≥ 70%
CSc1nc2n(Cc3ccc(I)nc3)c(C)cc(=O)n2n1 [compound 314],,≥ 70%
CSc1cc2n(Cn3cncn3)c(C)cc(=O)n2n1 [compound 287],,≥ 70%
CSc1nc2n(Cc3ccc(C(F)(F)F)nc3)c(C)cc(=O)n2n1 [compound 48],≥ 70%,
COc1ccc(Cn2c(C)cc(=O)n3nc(SC)nc23)cn1 [compound 53],≥ 70%,
COc1cncc(Cn2c(C)cc(=O)n3nc(SC)nc23)c1 [compound 303],≥ 70%,≥ 70%
CSc1nc2n(Cc3ccc(Cl)nn3)c(C)cc(=O)n2n1 [compound 282],≥ 70%,≥ 70%
CSc1nc2n(Cc3cnn(C)c3)c(C)cc(=O)n2n1 [compound 297],,≥ 70%
CSc1nc2n(Cc3cncs3)c(C)cc(=O)n2n1 [compound 277],,≥ 70%
